The list shows a part of the results.
The targets below were run with CC[C@@H]1C(=O)N(C)c2cnc(Nc3ccc(C(=O)NC4CCN(C)CC4)cc3OC)nc2N1C1CCCC1 (assay: log2 fold change, soluble protein after heating vs DMSO (PISA); higher = thermal stabilisation; K562 cells, 10 uM, 30 min; active = over 0.2 and 3.5 SD of the protein, either way, in both replicates (recomputed)).
Method in brief: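 Values are thermal stability changes relative to control samples and are taken from duplicates. They are stated as log2 fold changes. Before quantification by TMTpro 16plex LC-MS/MS with equalised channel sums, K562 cells at 2×10^6 cells/mL were treated with 10 μM compound for 30 min, heated in aliquots for 3 min across 48°C-58°C, pooled, extracted in PBS with 0.5% NP-40 at 4°C, and centrifuged at 21,000xg for 90 min to give the soluble supernatant.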

Protein sequences, listed by entry. Tags and fused reporters are not part of them. Lines headed by an entry give the natural chain unless they say otherwise; changes in a name come on top.
UniProt O43683: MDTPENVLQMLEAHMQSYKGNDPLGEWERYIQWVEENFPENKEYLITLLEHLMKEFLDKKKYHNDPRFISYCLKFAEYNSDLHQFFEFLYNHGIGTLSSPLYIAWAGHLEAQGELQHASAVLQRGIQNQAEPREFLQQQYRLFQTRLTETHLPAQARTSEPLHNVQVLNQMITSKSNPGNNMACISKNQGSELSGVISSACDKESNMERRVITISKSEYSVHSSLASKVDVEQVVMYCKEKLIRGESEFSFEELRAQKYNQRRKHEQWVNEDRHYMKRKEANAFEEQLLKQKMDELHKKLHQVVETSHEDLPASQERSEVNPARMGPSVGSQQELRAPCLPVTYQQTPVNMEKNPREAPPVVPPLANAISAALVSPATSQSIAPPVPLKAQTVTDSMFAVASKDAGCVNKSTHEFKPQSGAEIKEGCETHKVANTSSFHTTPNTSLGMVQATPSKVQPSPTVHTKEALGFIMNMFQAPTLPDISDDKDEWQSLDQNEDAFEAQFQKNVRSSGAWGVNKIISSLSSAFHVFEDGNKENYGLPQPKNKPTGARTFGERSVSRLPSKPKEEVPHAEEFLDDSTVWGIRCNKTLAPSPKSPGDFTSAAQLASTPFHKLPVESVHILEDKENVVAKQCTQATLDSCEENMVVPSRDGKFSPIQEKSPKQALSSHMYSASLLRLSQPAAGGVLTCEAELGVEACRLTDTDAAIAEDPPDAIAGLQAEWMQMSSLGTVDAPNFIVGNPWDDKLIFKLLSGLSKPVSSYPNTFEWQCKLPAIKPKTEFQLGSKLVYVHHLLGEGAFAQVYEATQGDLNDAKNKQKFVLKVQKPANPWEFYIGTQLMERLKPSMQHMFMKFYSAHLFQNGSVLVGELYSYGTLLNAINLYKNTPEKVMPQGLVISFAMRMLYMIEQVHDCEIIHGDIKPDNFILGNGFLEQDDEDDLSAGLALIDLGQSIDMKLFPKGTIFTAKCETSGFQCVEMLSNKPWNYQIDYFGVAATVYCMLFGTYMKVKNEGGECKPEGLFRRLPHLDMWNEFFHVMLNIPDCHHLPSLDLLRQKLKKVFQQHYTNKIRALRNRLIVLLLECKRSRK
UniProt Q9BVC5: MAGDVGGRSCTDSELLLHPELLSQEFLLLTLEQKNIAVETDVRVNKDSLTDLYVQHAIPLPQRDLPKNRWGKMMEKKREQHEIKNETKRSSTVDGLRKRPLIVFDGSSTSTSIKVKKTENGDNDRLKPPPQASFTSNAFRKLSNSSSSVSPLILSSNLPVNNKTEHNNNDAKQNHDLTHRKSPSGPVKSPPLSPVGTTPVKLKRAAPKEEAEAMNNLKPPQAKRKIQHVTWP
UniProt Q01518, whole entry, looked up: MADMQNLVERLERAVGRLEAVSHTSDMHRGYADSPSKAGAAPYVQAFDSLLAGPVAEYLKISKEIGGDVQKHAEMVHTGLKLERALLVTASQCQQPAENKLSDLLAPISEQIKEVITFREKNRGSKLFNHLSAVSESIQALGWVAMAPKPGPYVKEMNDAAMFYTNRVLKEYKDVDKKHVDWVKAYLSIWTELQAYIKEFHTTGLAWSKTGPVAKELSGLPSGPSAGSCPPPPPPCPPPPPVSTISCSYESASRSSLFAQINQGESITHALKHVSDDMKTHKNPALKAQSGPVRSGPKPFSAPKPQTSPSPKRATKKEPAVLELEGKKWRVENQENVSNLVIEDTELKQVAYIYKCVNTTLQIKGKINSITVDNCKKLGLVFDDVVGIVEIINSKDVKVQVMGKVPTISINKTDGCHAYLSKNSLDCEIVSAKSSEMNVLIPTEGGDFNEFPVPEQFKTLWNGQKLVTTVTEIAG
UniProt P07384: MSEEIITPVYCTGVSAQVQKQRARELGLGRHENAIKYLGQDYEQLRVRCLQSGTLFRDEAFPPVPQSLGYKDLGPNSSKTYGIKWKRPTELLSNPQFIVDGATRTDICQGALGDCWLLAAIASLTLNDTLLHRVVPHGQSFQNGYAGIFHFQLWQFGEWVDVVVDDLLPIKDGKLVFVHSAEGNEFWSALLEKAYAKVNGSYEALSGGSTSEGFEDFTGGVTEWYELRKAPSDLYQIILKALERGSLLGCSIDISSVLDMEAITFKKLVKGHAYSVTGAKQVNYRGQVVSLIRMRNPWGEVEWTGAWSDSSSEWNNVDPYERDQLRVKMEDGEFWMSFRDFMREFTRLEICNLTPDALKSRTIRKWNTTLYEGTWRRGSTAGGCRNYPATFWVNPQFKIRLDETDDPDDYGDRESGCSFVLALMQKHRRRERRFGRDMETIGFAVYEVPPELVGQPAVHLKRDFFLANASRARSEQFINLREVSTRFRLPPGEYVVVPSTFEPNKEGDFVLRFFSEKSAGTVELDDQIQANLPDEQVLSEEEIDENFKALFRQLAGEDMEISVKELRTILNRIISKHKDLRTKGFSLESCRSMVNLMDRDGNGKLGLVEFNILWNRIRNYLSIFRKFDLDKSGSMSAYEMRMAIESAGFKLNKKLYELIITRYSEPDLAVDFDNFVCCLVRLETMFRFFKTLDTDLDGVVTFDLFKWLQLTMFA
UniProt Q49AR2: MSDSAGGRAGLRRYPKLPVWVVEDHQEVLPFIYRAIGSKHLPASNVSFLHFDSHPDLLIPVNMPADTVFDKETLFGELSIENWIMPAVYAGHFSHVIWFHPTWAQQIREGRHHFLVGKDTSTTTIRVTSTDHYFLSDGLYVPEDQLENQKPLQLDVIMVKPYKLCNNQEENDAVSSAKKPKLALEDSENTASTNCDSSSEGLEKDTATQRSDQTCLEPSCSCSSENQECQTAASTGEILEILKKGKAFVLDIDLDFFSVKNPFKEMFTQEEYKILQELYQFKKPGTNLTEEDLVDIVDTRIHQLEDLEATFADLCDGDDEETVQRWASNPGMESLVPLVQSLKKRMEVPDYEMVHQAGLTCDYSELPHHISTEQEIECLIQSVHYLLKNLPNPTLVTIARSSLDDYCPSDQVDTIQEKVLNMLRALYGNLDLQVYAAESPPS
UniProt Q96L46: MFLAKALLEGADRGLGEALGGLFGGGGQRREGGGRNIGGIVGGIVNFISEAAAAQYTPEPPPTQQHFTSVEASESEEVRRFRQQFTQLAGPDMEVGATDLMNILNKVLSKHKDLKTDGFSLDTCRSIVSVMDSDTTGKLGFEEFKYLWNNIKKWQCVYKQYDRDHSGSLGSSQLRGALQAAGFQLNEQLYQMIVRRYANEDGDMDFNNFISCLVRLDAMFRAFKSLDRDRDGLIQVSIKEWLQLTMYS
UniProt Q6P1S2: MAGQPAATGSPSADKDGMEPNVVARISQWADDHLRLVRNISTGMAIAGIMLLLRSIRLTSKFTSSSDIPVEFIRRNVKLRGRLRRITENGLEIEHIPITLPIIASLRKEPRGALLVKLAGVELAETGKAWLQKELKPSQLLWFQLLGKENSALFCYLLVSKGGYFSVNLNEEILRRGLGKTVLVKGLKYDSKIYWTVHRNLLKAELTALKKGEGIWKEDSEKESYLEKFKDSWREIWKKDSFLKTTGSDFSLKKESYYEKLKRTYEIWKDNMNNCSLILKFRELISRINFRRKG
UniProt Q9Y2G2: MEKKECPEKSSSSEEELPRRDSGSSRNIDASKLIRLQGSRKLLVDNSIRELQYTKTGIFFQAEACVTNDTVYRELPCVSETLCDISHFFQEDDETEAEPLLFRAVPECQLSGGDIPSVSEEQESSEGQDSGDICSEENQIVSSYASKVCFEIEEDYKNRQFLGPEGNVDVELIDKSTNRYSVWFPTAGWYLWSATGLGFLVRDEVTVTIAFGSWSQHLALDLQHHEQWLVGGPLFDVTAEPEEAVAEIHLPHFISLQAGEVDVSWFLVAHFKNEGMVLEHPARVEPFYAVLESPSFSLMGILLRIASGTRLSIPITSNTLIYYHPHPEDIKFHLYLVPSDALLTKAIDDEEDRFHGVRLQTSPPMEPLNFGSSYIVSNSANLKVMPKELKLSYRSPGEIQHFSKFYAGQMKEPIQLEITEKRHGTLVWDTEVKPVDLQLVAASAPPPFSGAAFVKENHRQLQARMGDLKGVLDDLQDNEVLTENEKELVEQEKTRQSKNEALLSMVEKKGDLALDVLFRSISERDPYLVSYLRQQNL
UniProt Q96EU7: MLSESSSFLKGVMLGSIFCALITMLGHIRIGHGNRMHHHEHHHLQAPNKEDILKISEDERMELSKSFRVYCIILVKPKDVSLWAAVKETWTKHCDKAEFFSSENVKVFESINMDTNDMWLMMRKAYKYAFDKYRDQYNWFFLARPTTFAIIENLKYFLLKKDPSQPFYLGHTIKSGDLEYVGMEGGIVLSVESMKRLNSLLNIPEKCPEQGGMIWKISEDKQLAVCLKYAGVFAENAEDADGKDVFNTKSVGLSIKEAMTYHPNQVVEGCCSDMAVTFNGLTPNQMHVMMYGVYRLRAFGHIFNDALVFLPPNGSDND
UniProt Q9Y6W3: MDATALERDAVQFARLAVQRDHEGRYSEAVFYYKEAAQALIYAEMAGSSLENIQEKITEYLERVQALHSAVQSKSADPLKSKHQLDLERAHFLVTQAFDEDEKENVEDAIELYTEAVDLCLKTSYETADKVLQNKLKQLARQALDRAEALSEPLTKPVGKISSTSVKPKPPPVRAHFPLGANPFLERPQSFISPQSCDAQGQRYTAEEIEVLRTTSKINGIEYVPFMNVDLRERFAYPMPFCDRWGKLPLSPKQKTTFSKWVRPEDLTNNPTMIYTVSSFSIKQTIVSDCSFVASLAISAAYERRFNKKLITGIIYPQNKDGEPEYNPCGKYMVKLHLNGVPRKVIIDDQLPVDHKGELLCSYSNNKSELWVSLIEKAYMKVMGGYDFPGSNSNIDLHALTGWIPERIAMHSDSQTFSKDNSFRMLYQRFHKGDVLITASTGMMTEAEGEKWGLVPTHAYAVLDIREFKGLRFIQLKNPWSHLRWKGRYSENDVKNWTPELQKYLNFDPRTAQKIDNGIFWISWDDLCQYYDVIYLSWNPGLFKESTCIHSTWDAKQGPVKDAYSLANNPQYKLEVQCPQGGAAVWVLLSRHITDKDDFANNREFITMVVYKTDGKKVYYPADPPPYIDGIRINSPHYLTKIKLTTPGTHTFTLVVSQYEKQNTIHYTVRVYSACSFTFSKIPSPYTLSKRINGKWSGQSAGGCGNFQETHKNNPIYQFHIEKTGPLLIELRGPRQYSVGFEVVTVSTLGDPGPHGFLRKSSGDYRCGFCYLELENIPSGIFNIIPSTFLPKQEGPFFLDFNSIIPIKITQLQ
UniProt Q9BX69: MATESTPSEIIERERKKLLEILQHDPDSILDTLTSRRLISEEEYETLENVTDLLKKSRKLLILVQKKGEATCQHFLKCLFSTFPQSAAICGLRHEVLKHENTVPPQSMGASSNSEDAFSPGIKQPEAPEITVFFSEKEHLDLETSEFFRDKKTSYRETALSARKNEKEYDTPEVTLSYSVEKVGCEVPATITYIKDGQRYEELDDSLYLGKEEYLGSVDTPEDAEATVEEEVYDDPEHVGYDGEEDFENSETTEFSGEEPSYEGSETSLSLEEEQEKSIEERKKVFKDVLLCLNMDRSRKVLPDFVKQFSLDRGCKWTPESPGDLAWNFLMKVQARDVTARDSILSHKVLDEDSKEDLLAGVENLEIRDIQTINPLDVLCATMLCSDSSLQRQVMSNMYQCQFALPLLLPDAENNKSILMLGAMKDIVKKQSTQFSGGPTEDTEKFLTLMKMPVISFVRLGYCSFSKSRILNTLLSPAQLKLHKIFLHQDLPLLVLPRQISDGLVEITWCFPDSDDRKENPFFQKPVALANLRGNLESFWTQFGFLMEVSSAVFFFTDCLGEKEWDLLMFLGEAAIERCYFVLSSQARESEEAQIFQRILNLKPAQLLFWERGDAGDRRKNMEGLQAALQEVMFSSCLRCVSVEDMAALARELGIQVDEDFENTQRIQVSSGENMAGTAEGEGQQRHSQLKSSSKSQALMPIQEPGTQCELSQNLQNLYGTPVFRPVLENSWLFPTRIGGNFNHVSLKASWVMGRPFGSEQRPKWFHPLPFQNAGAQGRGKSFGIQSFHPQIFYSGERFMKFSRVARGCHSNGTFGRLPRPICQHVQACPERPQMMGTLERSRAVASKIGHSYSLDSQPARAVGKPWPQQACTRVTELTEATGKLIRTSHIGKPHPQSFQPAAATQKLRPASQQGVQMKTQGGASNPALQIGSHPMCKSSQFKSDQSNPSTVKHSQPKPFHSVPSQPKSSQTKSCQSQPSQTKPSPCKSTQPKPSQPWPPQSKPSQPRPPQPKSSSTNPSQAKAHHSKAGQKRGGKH
UniProt P40121: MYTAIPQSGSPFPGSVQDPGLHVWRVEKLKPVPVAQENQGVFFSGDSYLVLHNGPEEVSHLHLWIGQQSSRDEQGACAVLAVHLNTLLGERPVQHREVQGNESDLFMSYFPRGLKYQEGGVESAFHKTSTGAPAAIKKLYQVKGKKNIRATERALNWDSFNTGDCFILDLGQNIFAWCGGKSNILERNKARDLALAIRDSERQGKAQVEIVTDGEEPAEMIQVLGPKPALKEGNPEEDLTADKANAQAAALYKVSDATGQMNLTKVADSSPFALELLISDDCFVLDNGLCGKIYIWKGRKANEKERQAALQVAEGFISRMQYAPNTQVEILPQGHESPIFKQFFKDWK

log2 fold change, inactive:
C1QBP (UniProt Q07021) -0.026
BUB1 (UniProt O43683) 0.054
C6orf47 (UniProt O95873) 0.075
C2orf49 (UniProt Q9BVC5) 0.123
C17orf75 (UniProt Q9HAS0) 0.022
CAP1 (UniProt Q01518) -0.033
CAND2 (UniProt O75155) 0.001
C8orf76 (UniProt Q96K31) 0.03
CAPN1 (UniProt P07384) 0.043
CAPZB (UniProt P47756) -0.042
BTF3L4 (UniProt Q96K17) 0.028
C12orf45 (UniProt Q8N5I9) 0.024
C1GALT1 (UniProt Q9NS00) -0.007
C2orf69 (UniProt Q8N8R5) 0.018
C5orf22 (UniProt Q49AR2) -0.005
C2CD5 isoform 4 (UniProt Q86YS7) -0.08
CAPNS2 (UniProt Q96L46) 0.225
C3orf33 (UniProt Q6P1S2) 0.065
C1orf198 (UniProt Q9H425) -0.084
CARD8 isoform 5 (UniProt Q9Y2G2) 0.122
C1orf131 isoform 5 (UniProt Q8NDD1) 0.124
C3 (UniProt P01024) -0.068
C1GALT1C1 (UniProt Q96EU7) -0.065
CAPN7 (UniProt Q9Y6W3) 0.023
C15orf40 (UniProt Q8WUR7) 0.019
CARD6 (UniProt Q9BX69) 0.103
CACYBP (UniProt Q9HB71) -0.044
CAPG (UniProt P40121) -0.063
C17orf80 (UniProt Q9BSJ5) -0.025
C1orf52 (UniProt Q8N6N3) 0.006
BTN2A1 (UniProt Q7KYR7) 0.164
C11orf98 (UniProt E9PRG8) 0.212

Random excerpt: two records from the list, in no set order.
log2 fold change, inactive:
CAPZB (UniProt P47756) -0.042
CAPN1 (UniProt P07384) 0.043

Reference: the supplement of paper PMC10849652
